Among the data in PubChem BioAssay AID256 (DTP/NCI, 2004) are survivor count and T/C values, retold here.

This assay concerns CD2F1 mice, L1210 leukemia ip, survival T/C. Description: NCI In Vivo Anticancer Drug Screen. Data for tumor model L1210 Leukemia (intraperitoneal) in CD2F1 (CDF1) mice. Conditions: T/C endpoint: mean survival time, higher T/C = longer survival. An outline of the steps:
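In this screen, transplantable tumors were grown in mice given either the compound or its vehicle. Results were expressed as the treated measurement relative to the control measurement.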

[1] abbreviates: dose: 300.0 mg/kg/injection, schedule: Q01DX001 (ip), vehicle: saline.
The mark [2] stands for this setting: dose: 400.0 mg/kg/injection, schedule: Q04DX003 (ip), vehicle: saline with Tween-80.
Where [3] appears, read: dose: 200.0 mg/kg/injection, schedule: Q01DX009 (ip), vehicle: saline with Tween-80.
[4] abbreviates: dose: 200.0 mg/kg/injection, schedule: Q04DX003 (ip), vehicle: saline with Tween-80.
Setting [5] is: dose: 100.0 mg/kg/injection, schedule: Q04DX003 (ip), vehicle: saline with Tween-80.
Where [6] appears, read: dose: 25.0 mg/kg/injection, schedule: Q04DX003 (ip), vehicle: saline with Tween-80.

The list does not hold the whole screen: it gathers tests that were run many times, whatever their T/C, doses with no T/C, and many T/C values between a quarter and a half above the control. Other doses and runs of a compound stand elsewhere. T/C gives the treated animals as a percentage of the vehicle group. Some entries give survivors of the animals treated and no T/C: the source holds a T/C of zero for them, seemingly a mark for toxic or unscored doses. Some survivor counts are full or nearly so, which does not show that the dose was tolerated: survival well below the control is almost never listed, so the zero probably covers shortened survival too. Survivors were counted at the toxicity check, usually on the fifth day, unless a day is given; later deaths do not show. Schedules are NCI's codes, read here as Q, the interval in days (D) or hours (H), X, the number of doses. For survival time, the PubChem record calls one and a half times the control and up active, and a quarter to a half above the control has no call in these data; cut-offs in other NCI protocols can differ. Some T/C values carry the count of animals alive at the toxicity check (mostly the fifth day); without a count, all were alive then.

In the case of `Nc1nc2c(ncn2C2CC(O)C(CO)O2)c(=O)n1N` (configuration not stated), under setting [1], the survivor count is given as 2 of 6.
Consider `COC12[C@@H](COC(N)=O)C3=C(C(=O)C(C)=C(NCCSSCCNC4=C(C)C(=O)C5=C(C4=O)C(COC(N)=O)[C@]4(OC)C6[C@@H](CN54)N6C)C3=O)N1C[C@@H]1[C@H]2N1C` (some centres not stated), for which the T/C (dose: 12.0 mg/kg/injection, schedule: Q01DX001 (ip), vehicle: distilled water + Tween-80) was 127 % of control; the T/C (dose: 24.0 mg/kg/injection, schedule: Q01DX001 (ip), vehicle: distilled water + Tween-80) was 129 % of control; the T/C (dose: 48.0 mg/kg/injection, schedule: Q01DX001 (ip), vehicle: distilled water + Tween-80) was 136 % of control [5 of 6 alive].
Consider `CSCCC(C)(C)C`, for which the survivor count (dose: 150.0 mg/kg/injection, schedule: Q01DX001 (ip), vehicle: saline) is 1 of 6 and the survivor count under setting [1] is listed as 0 of 6.
Turning to `O=C(CC(O)(C(F)(F)F)C(F)(F)F)c1ccc(Cl)cc1`, the survivor count under setting [2] is 3 of 6.
Regarding `CCOC(=O)NC(NC(=O)OCC)C(Br)(Br)Br`, where the note is “dose: 100.0 mg/kg/injection, schedule: Q01DX001 (ip), vehicle: Klucel (hydroxypropylcellulose) (HPC)”, the T/C is 137 % of control.
As to `O=C(COc1ccccc1)NC(=S)Nc1ccc(Cl)cc1Cl`, the survivor count by setting is: (dose: 100.0 mg/kg/injection, schedule: Q01DX009 (ip), vehicle: saline with Tween-80) 6 of 6; under setting [3], 1 of 6; (dose: 400.0 mg/kg/injection, schedule: Q01DX009 (ip), vehicle: saline with Tween-80) 0 of 6.
`COC(=O)C1C(O)C(C)C(O)C(C)(O)C=C(C)C2=C3C(=C(C)C(=O)c4c(O)c(c(C)c(OC(C)=O)c43)NC(=O)C(C)=C/C=C\C(C)(O)C(O)C(C)C1O)OCO2` (configuration not stated): the survivor count is 3 of 6 under setting [4] and 0 of 6 under setting [2].
For `O=C(OC(CN1CCCCC1)CN1CCCc2ccccc21)C(O)C(O)C(O)(CO)C(=O)OC(CN1CCCCC1)CN1CCCc2ccccc21` (configuration not stated), the survivor count under setting [2] was 0 of 6.
As for `CCN(CC)CCCC(C)NC(C)CCCN(CC)CC` (configuration not stated), the survivor count is, setting by setting: (dose: 100.0 mg/kg/injection, schedule: Q01DX009 (ip), vehicle: Klucel (hydroxypropylcellulose) (HPC)) 3 of 6; (dose: 200.0 mg/kg/injection, schedule: Q01DX009 (ip), vehicle: Klucel (hydroxypropylcellulose) (HPC)) 0 of 6; (dose: 400.0 mg/kg/injection, schedule: Q01DX009 (ip), vehicle: Klucel (hydroxypropylcellulose) (HPC)) 0 of 6.
For the compound `O=C(/C=C(\NC1CCCCC1)C(=O)c1ccccc1)c1ccccc1`, the survivor count under setting [5] was 6 of 6.
`c1ccc2c(CC3=NCCN3)cccc2c1`: the survivor count reads like this: under setting [6], 6 of 6; (dose: 100.0 mg/kg/injection, schedule: Q04DX003 (ip), vehicle: saline) 3 of 6; (dose: 200.0 mg/kg/injection, schedule: Q04DX003 (ip), vehicle: saline) 0 of 6.
As to `CC(C)CN1CCOCC1`, the survivor count is, setting by setting: under setting [3], 0 of 6; under setting [2], 0 of 6.
In the case of `CCCCC(CC(=O)O)c1ccc(Cl)cc1` (configuration not stated), the survivor count under setting [2] is reported as 1 of 6.
On to `Clc1nnc(Cl)c(Cl)c1Cl`, for which the survivor count reads like this: (dose: 6.25 mg/kg/injection, schedule: Q04DX003 (ip), vehicle: saline with Tween-80) 2 of 6; (dose: 12.5 mg/kg/injection, schedule: Q04DX003 (ip), vehicle: saline with Tween-80) 2 of 6; under setting [6], 0 of 6; (dose: 50.0 mg/kg/injection, schedule: Q04DX003 (ip), vehicle: saline with Tween-80) 0 of 6; under setting [5], 3 of 6; under setting [4], 0 of 6. Further, under setting [2], the survivor count is given as 0 of 6.
For the compound `CCCCCCCCCCCCCCCCN(C)C`, the survivor count under setting [5] is recorded as 0 of 6.
